For 42 sequences, binding signal results are on record in paper PMC7819943, “Rice protein-binding microarrays: a tool to detect cis-acting elements near promoter regions in rice”.

Sequences of proteins named here, by UniProt entry; tags and fusion partners are left off.
UniProt Q0JBA9, entry or part of it: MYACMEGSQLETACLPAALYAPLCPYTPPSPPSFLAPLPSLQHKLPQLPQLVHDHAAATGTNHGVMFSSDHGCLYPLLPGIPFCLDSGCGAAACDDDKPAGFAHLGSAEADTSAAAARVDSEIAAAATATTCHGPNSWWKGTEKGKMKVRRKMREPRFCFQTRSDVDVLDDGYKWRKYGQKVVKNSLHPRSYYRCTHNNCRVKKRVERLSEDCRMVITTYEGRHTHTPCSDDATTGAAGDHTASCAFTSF

The list shows a part of the results.

This experiment addresses OsWRKY34 (Oryza sativa, UniProt Q0JBA9 1-250). Kind of experiment: protein-binding microarray (RPBM); PBS, 2% BSA, 51.3 ng/ul salmon testes DNA, 50 uM zinc acetate, 200 nM TF, 25 C, 1 h; high values mean tight binding. Particulars: protein: recombinant; tags: N-terminal polyhistidine and DsRed monomer fusion (pET32a); label: CyDye5-dUTP incorporated in the synthesized complementary strand; 3' TTTTT single-stranded linker to array surface; dsDNA, one strand shown. The method in brief: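 The binding signal for each feature is its fluorescence intensity in arbitrary units. An Axon 4000B scanner was used to read a custom Agilent array that had been made double-stranded with Cy5-dUTP primer extension, blocked with 2% BSA, incubated at 25 °C for 1 h with 200 nM protein in PBS, 2% BSA, salmon testes DNA and 50 µM zinc acetate, and washed. The protein was an N-terminal polyhistidine–DsRed transcription factor fusion from E. coli BL21-CodonPlus, purified on Ni–NTA.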
Take “TTCACCTGCGTCCCGGGGATCCGGGCCTCGGGCTGCGGCCCGGAGTCACCTAGTGCAG”: the binding signal is 8400 fluorescence intensity (a.u.).
As for “GAGGTAAGATTAGGGTTAGGGTTTCGATCTTTTCGATCCGCGGAGTCACCTAGTGCAG”, the figure is 8680 fluorescence intensity (a.u.).
On to “CATCCGCTGCCTGAAACATCTCTCTCCATCTCTCTTTAAACGGAGTCACCTAGTGCAG”, for which the binding signal was 11200 fluorescence intensity (a.u.).
To “CCAGTTGACCAATACCAACCGATCCTTACCCGTTCCTCTTCGGAGTCACCTAGTGCAG” belongs 9380 fluorescence intensity (a.u.).
To “GGAGATACGGCGAGGGGAGGGGACGGAGGGGCGGGGTGCGCGGAGTCACCTAGTGCAG” belongs 24700 fluorescence intensity (a.u.).
To “AACCAGCCCATCTAGCCTTGTCATCAACAGCATAAACAAACGGAGTCACCTAGTGCAG” belongs 8360 fluorescence intensity (a.u.).
Turning to “GACTCTCCTGGCCGCTGTCTAGTTGTGCATCTAGCCATTTCGGAGTCACCTAGTGCAG”, the binding signal was 9180 fluorescence intensity (a.u.).
As for “ATCATCCCATTTGTATATTCCCTAATCTTACATTCTCTGTCGGAGTCACCTAGTGCAG”, the figure is 11400 fluorescence intensity (a.u.); as for “GCTGAAACAAACTTTCTCAGTCCTATCCACATATCCGACGCGGAGTCACCTAGTGCAG”, 8560 fluorescence intensity (a.u.).
Regarding “TATGGTTTGTATCGGCTTTCGCGCTGTTTTGGTAAAACCTCGGAGTCACCTAGTGCAG”, the binding signal is 10600 fluorescence intensity (a.u.).
To “ACGAGGTCGCCGTCGGCCACCTCTACCGCTGTCGCCGCCTCGGAGTCACCTAGTGCAG” belongs 11000 fluorescence intensity (a.u.); to “TTGTTACATACACATCGCTATGCCTATGCATCATTTATCTCGGAGTCACCTAGTGCAG”, 8100 fluorescence intensity (a.u.).
To “GATCTATCGAAGCTTTCTAACACTATGGATCTTTGACCATCGGAGTCACCTAGTGCAG” belongs 8410 fluorescence intensity (a.u.); to “CGCGGCCTCCTCGCCGGTAAACCCCACCACCTCGACATTACGGAGTCACCTAGTGCAG”, 8420 fluorescence intensity (a.u.); to “CTCGCCTCGCCGCCTTTTCTTCGCCATCTTTTTCGATTTCCGGAGTCACCTAGTGCAG”, 18800 fluorescence intensity (a.u.).
To “ACATCACAATACCAACTGGAACCCTGATTAACGATTTCCACGGAGTCACCTAGTGCAG” belongs 8910 fluorescence intensity (a.u.); to “CAGCTAAATGGTCCATCTGATATATATTGCCCGATCCGAACGGAGTCACCTAGTGCAG”, 8840 fluorescence intensity (a.u.).
Regarding “AGAGTTTTTTTTGTCAAAATTTATGTTTTAGCCTTTGCTTCGGAGTCACCTAGTGCAG”, the binding signal was 9960 fluorescence intensity (a.u.).
Consider “GTGTAGTACCAAACTGCTTTTCGTTAATGCTCATATCAGTCGGAGTCACCTAGTGCAG”, for which the binding signal was 8290 fluorescence intensity (a.u.).
To “TTTTCCTTTACTTCTGAACTTATTTGCTTCTCCTTTTCCTCGGAGTCACCTAGTGCAG” belongs 9330 fluorescence intensity (a.u.); to “GTGGTGGTGGTGGTGGTGGTGGCGGCGGCGGCCGGCCATGCGGAGTCACCTAGTGCAG”, 20000 fluorescence intensity (a.u.); to “GTACTCTCCAACTATACATGCAAAGGCAGCCACACGTACACGGAGTCACCTAGTGCAG”, 8640 fluorescence intensity (a.u.).
As for “GCAGCACTGGTTCCTAGCTTCTCTTCAGTCGTTCGGCCTACGGAGTCACCTAGTGCAG”, the figure is 11900 fluorescence intensity (a.u.); as for “TCTGTCACTCACTCACTCACTCACTCACTCACTAGAGTTACGGAGTCACCTAGTGCAG”, 8360 fluorescence intensity (a.u.).
On to “TCGCTTTACCTTTGTTTCTCACTTCTGTAACTAAAACCTACGGAGTCACCTAGTGCAG”, for which the binding signal was 8520 fluorescence intensity (a.u.).
To “TTTTCACCAACTGTGCATAGGTGTACCATGTTTGGACAACCGGAGTCACCTAGTGCAG” belongs 9800 fluorescence intensity (a.u.); to “TCCTCGATGACCGATCCGTCGTTCCGGCGCTAAGCACATGCGGAGTCACCTAGTGCAG”, 8090 fluorescence intensity (a.u.); to “ATATAGGTTACGGATTTGTCATTGGTCGTTGTATTCTTTTCGGAGTCACCTAGTGCAG”, 10600 fluorescence intensity (a.u.).
To “TTTCCTTATATCCCTATGGTTTGTGTTCGACTCTTTTATCCGGAGTCACCTAGTGCAG” belongs 10100 fluorescence intensity (a.u.).
With “GCGCATGGTGTTCGGGAAGAAGTACATCGTCGAGGAGGGGCGGAGTCACCTAGTGCAG”, the binding signal is 8540 fluorescence intensity (a.u.).
As for “CCTTGGTGTTGGCTCCTCCTGTCCAATCCTCTGGCTTAAGCGGAGTCACCTAGTGCAG”, the figure is 8040 fluorescence intensity (a.u.); as for “GGGTATTTTTTAAGTAGCTAGGTGTATAATTAAATTAGTTCGGAGTCACCTAGTGCAG”, 8760 fluorescence intensity (a.u.).
To “GATCTATTATATCTAGTCTTTCGGTTCGGGGCAGTTTTAACGGAGTCACCTAGTGCAG” belongs 11800 fluorescence intensity (a.u.).
To “TCTTTCATGCCAACCCGCCGTCCTAGCCACTCCCGTTCTTCGGAGTCACCTAGTGCAG” belongs 14200 fluorescence intensity (a.u.).
As to “TCCCGGCCACTTGCCGTGTGACGACGCCGGTCAAATTTTCCGGAGTCACCTAGTGCAG”, the binding signal was 10300 fluorescence intensity (a.u.).
Turning to “TGCGGCCCACCTTTGCTTCTTCGTTGACTTTCTTGCCGTCCGGAGTCACCTAGTGCAG”, the binding signal is 26900 fluorescence intensity (a.u.).
As to “AATGTTTATATTTTGGGACAGAGGGTGTATGTATGTAGACCGGAGTCACCTAGTGCAG”, the binding signal was 8070 fluorescence intensity (a.u.).
To “TGTGTGGTTGAGGGAGGTGATTCAATTAGGAGCGAACGATCGGAGTCACCTAGTGCAG” belongs 9190 fluorescence intensity (a.u.); to “ATGGATAGTTAGATTTTTTTTTTAATTTTTTGAACTTTTTCGGAGTCACCTAGTGCAG”, 9420 fluorescence intensity (a.u.); to “TAAATATGATACCGTGTCGACTGTTTCCTCGCCTCCTTCCCGGAGTCACCTAGTGCAG”, 8300 fluorescence intensity (a.u.).
As for “CTTAATGTTAATCACACCGCTTAACCAAATGTCTTCTACACGGAGTCACCTAGTGCAG”, the figure is 8770 fluorescence intensity (a.u.); as for “GCGACGAGAGCTGTCGTGGGTGGCGGTGGTGGGCTCGCTGCGGAGTCACCTAGTGCAG”, 8280 fluorescence intensity (a.u.).
